# From US20240343809A1 (EXCELMAB, published 2024)
# Changes are numbered by the printed parent chain. Results are given in words; binding and its absence hold for the method and conditions named. Some entries that bind do so weakly or less than the wild type.
# T1: human B7-H3 antigen, recombinant extracellular domain (ECD) (29-461) (human) (UniProt Q5ZPR3)
# T1 sequence (looked up): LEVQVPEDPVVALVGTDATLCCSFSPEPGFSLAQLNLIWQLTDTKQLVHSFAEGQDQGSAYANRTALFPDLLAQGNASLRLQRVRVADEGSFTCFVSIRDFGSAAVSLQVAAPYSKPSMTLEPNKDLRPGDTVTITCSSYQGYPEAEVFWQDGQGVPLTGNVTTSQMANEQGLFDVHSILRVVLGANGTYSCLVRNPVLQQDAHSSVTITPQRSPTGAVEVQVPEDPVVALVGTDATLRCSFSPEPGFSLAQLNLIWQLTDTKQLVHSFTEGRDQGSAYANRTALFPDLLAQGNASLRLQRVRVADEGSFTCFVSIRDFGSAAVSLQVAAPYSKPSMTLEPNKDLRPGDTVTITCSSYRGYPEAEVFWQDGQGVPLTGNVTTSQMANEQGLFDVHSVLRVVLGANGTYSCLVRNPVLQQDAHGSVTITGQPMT
# B1: B7-H3×CD3 bispecific antibody 42F7×CD3 (bispecific antibody, not shown: a dimerising Fc or GST)
# heavy 1: QVQLVQSGAEVKKPGSSVKVSCKASGGTRPAALINWVRQAPGQGLEWMGGIIPLFGTANYAQKFQGRVTITADESTSTAYMELSSLRSDDTAVYYCARDQVVATSGVNFGMDVWGQGTTVTVSS
# heavy 2: EVQLVESGGGLVQPGGSLKLSCAASGFTFNTYAMNWVRQAPGKGLEWVARIRSKYNNYATYYADSVKDRFTISRDDSKNTAYLQMNNLKTEDTAMYYCVRHGNFGTSYVSWFAYWGQGTLVTVSS
# light: DIQMTQEPSLTTSPGGTVTLTCRSSTGAVTTSNYANWVQEKPGQAPRGLIGGTNKRAPGTPARFSGSLIGGKAALTITGVQPEDEAIYFCALWYSNLWVFGGGTKLEIK
# B2: B7-H3×CD3 bispecific antibody 49E1×CD3 (bispecific antibody, not shown: a dimerising Fc or GST)
# heavy 1: B1 heavy 1 with R29F, P30S, A31N, A32Y, L33A, L54V, G56R, T57S, A58V
# heavy 2: B1 heavy 2
# light: B1 light
# B3: B7-H3×CD3 bispecific antibody 46H7×CD3 (bispecific antibody, not shown: a dimerising Fc or GST)
# heavy 1: B1 heavy 1 with R29F, P30S, A31N, A32Y, L33A, Q100R, V101F, V102T, A103P, T104R
# heavy 2: B1 heavy 2
# light: B1 light
# B4: B7-H3×CD3 bispecific antibody 43G11×CD3 (bispecific antibody, not shown: a dimerising Fc or GST)
# heavy 1: B1 heavy 1 with R29L, P30R, A31P, A32V
# heavy 2: B1 heavy 2
# light: B1 light
# B5: affinity-matured B7-H3 antibody 42F7 (antibody, V domains shown)
# VH: B1 heavy 1
# VL: B1 light
# notes: Full antibody expressed in 293F cells, protein A purified; VH assembled from the framework and CDR entries
# B6: affinity-matured B7-H3 antibody 50A1 (antibody, V domains shown)
# VH: B1 heavy 1 with R29F, P30S, A31N, A32Y, L33A, A103P, T104L
# VL: B1 light
# notes: as for B5
# B7: affinity-matured B7-H3 antibody 48D10 (antibody, V domains shown)
# VH: B1 heavy 1
# VL: B1 light
# notes: as for B5
# Biological target: T1, human B7-H3 antigen, recombinant extracellular domain (ECD) (29-461) (human)
# Test: ELISA, B7-H3 antigen coated at 1 µg/mL
row,binding,Binder
1,binds,B1
2,binds,B2
3,binds,B3
4,binds,B4

# Biological target: T1, human B7-H3 antigen, recombinant extracellular domain (ECD) (29-461) (human)
# Test: summary of the foregoing ELISA and FACS results
row,binding,Binder
1,binds,B5
2,binds,B6

# Biological target: T1, human B7-H3 antigen, recombinant extracellular domain (ECD) (29-461) (human)
# Test: ELISA, coated human B7-H3 antigen
row,binding,Binder
1,binds,B5
2,binds,B7
3,binds,B6
